# Experimental data reported in PubChem BioAssay AID445 (National Center for Advancing Translational Sciences (NCATS), 2006).
# Where “and” joins values, the source holds several entries; their conditions need not be identical. Equal values may be shown once. The list shows a part of the results. These are further read-outs of the screen, such as a control signal, another cell line or another target. No call is given for them. Most of these compounds were active or inconclusive in the main read-out, so they are no random draw. Words in brackets tell the shape of the fitted curve; partial curves, single points and poor fits give uncertain potencies.
# Assay: IkB Signaling
# Settings: ABC-DLBCL IkBa-CBG/CBR dual luciferase ratio (green luciferase fused to IkBa over red control in OCI-Ly3 lymphoma cells), 4 h
# Outline: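 In this assay, an IκBα–CBG68 fusion accumulates when IKK-driven degradation is blocked; native CBR normalizes for cell number. OCI-Ly3 cells were treated 4 h with compound and doxycycline, then green and red light read after Chroma-Glo addition.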
# [1] = measured here: control luc red channel unless noted
# [2] = measured here: IkB-luc green channel
# [3] = measured here: control luc red channel
structure (smiles),measurement,setting,value
Cc1ccc2nc(Nc3ccc(C)c(F)c3)c3nncn3c2c1,AC50,[1],"3.98 µM [rising, partial curve]"
c1ccc(OCc2nc3ccccc3s2)cc1,AC50,[1],"12.6 µM [falling, partial curve]"
COc1ccc2cc(C(=O)NCc3ccc4c(c3)CCN4C(=O)c3ccc(F)cc3)[nH]c2c1,AC50,[1],"10 µM [falling, partial curve]"
COc1cc(C)cc2oc(=O)c(CC(=O)NCCc3ccc(Cl)cc3)c(C)c12,AC50,[1],"39.8 µM [rising, single point] [measured here: IkB-luc green channel]"
Fc1cccc(-c2nnn3c2nc(NCCc2ccccc2)c2ccccc23)c1,AC50,[1],"0.2 µM [falling, full curve]"
N#CCSc1nc(Nc2ccc3c(c2)OCO3)c2ccccc2n1,AC50,[1],"6.31 µM [falling, partial curve]"
CCCCN(C)CC(O)Cn1cc(/C=C/C(=O)c2ccc(OC)c(OC)c2)c2ccccc21 (stereo not given),AC50,[1],"25.1 µM [falling, partial curve]"
Cc1ccc(-c2nc(S(=O)(=O)c3ccc(Cl)cc3)c(N3CCCCC3)o2)cc1,AC50,[1],"12.6 µM [falling, partial curve, poor fit]"
COc1ccc(CNC(=O)Cn2nnc(-c3ccccc3F)n2)cc1,AC50,[1],"20 µM [falling, single point]"
COc1ccc(Cl)cc1C(=O)Nc1ccc2oc(-c3ccc(C(C)(C)C)cc3)nc2c1,AC50,[1],"25.1 µM [falling, single point]"
CCn1c(N)c(C(=O)NC2CCCCC2)sc1=S,AC50,[1],"15.8 µM [falling, partial curve]"
CCCSC1=NC2(CCN(C(=O)NC3CCCCC3)CC2)N=C1c1ccccc1,AC50,[1],"20 µM [falling, single point]"
Cc1cc2n(n1)CCCN2C(=O)Nc1ccc(Cl)cc1,AC50,[1],"0.631 µM [rising, single point]"
Cc1c(C(=O)OCC(C)C)[nH]c2c1C(=O)CC(c1ccco1)C2 (stereo not given),AC50,[2],"0.794 µM [rising, full curve]"
same,AC50,[3],"0.158 µM [rising, full curve, poor fit]"
Fc1cccc(Cl)c1CNc1n[nH]c(-c2ccco2)n1,AC50,[1],"20 µM [falling, single point]"
Cc1ccc(Cl)cc1N1CCN(C(=O)c2cccn2-c2nnc(N3CCCCC3)s2)CC1,AC50,[1],"31.6 µM [falling, partial curve]"
O=C(Nc1c(C(=O)O)oc2ccc(Br)cc12)c1ccccc1,AC50,[1],"0.794 µM [falling, full curve, poor fit]"
CC(=O)Nc1ccc(S(=O)(=O)N2CCSC2c2ccccc2Cl)cc1 (stereo not given),AC50,[1],"12.6 µM [falling, partial curve]"
COc1ccc(N2CCN(c3nc(NCCc4ccc(OC)c(OC)c4)nc(OC)n3)CC2)cc1,AC50,[1],"3.16 µM [falling, full curve]"
Cc1c(-c2ccccc2)c(=O)oc2c(CN3CCN(C)CC3)c(O)ccc12,AC50,[1],"0.316 µM [rising, full curve]"
COc1ccc(NC(=O)Cc2csc(COc3cccc(C)c3)n2)cc1OC,AC50,[1],"15.8 µM [falling, partial curve]"
Cc1ccc(C)c(S(=O)(=O)c2nnn3c2nc(NCc2cccs2)c2sccc23)c1,AC50,[1],"7.94 µM [falling, full curve]"
Cc1ccc(NC(=O)CN(C)S(=O)(=O)c2ccc3c(c2)CCC(=O)N3)c(C)c1,AC50,[1],"3.98 µM [falling, full curve]"
Cc1ccc(CN2CCCn3nc(C(=O)NCc4ccccc4Cl)cc3C2=O)cc1,AC50,[1],"15.8 µM [falling, partial curve]"
COc1ccccc1-c1noc(-c2ccc(N(C)Cc3ccccc3)c([N+](=O)[O-])c2)n1,AC50,[1],"10 µM [falling, partial curve]"
CCCCN(CC)C(=O)CCn1c(=O)c2cccn2c2cccnc21,AC50,[1],"25.1 µM [falling, single point]"
COc1ccccc1C(=O)c1c(N)c(-c2nc(-c3ccccc3)cs2)c2ccccn12,AC50,[1],"2.51 µM [falling, full curve]"
CCOc1ccccc1C(=O)Nc1ccc2nc(N3CCN(c4ncccn4)CC3)cc(C)c2c1,AC50,[1],"1 µM [falling, full curve, poor fit]"
CCCCNC(=O)CN1C(=O)CSc2ccc(S(=O)(=O)N3CCC(C)CC3)cc21,AC50,[1],"31.6 µM [falling, single point]"
COc1cccc(NC(=O)CN(Cc2ccccc2)S(=O)(=O)c2ccc3nc(C)sc3c2)c1,AC50,[1],"20 µM [falling, partial curve]"
CC1Cc2ccccc2N1C(=O)CSc1nc2ccccc2o1 (stereo not given),AC50,[1],"12.6 µM [falling, partial curve]"
O=C(NCc1ccco1)c1nn(-c2ccccc2)c(=O)c2ccccc12,AC50,[1],"25.1 µM [falling, partial curve]"
Cc1nn(CCCC(=O)NCc2cccc(F)c2)c(=O)c2nn(-c3ccccc3)c(C)c12,AC50,[1],"7.94 µM [falling, partial curve]"
CCOC(=O)c1c(S(=O)(=O)NCC(=O)Nc2ccc(Cl)c(C(F)(F)F)c2)c(C)n(C)c1C,AC50,[1],"3.16 µM [falling, single point]"
CC(=O)c1cccc(NC(=O)COc2ccc(S(=O)(=O)N3CCCCC3)cc2)c1,AC50,[1],"12.6 µM [falling, partial curve]"
CCCCc1nn2c(=O)cc(COC(=O)c3cccc(NC(=O)c4cccc(C)c4)c3)nc2s1,AC50,[1],"7.94 µM [falling, partial curve]"
Cc1c(Cl)cccc1NC(=O)Cn1nc(C(F)(F)F)c2c1CCC2,AC50,[1],"12.6 µM [falling, partial curve]"
COc1ccc(-c2cc3nc4c(c(N5CCC6(CC5)OCCO6)n3n2)CCCC4)cc1,AC50,[1],"12.6 µM [falling, partial curve]"
O=C1CCCCCN1Sc1ccccc1,AC50,[2],"31.6 µM [rising, partial curve]"
same,AC50,[3],"15.8 µM [rising, partial curve]"
Cc1cc(C)n(-c2nc3ccccc3nc2Nc2cccc(C(=O)NCCc3ccccc3)c2)n1,AC50,[1],"25.1 µM [falling, partial curve, poor fit]"
CCOc1ccc(CNc2ccc3c(c2)nc(C)n3C)cc1,AC50,[1],"10 µM [falling, partial curve]"
Nc1c(NCCCN2CCOCC2)c2ccccc2oc1=O,AC50,[1],"7.94 µM [falling, full curve]"
Cc1ccc(NC(=O)C2CCCN(S(=O)(=O)c3cccc4cccnc34)C2)c(Br)c1 (stereo not given),AC50,[1],"39.8 µM [falling, single point]"
Cn1cc(S(=O)(=O)N2CCCCCC2)cc1C(=O)NCc1ccc(Cl)cc1,AC50,[1],"39.8 µM [falling, single point]"
CC1=C(C(=O)Nc2ccccc2)C(c2cccc(O)c2)n2nc(-c3ccccc3Cl)nc2N1 (stereo not given),AC50,[1],"15.8 µM [falling, single point]"
COc1ccccc1-c1nn2c(=O)cc(CN3CCN(S(=O)(=O)c4ccc(C)cc4)CC3)nc2s1,AC50,[1],"0.0501 µM [falling, full curve, poor fit]"
Brc1ccc(CNCCCSc2nnnn2-c2ccccc2)cc1,AC50,[1],"0.794 µM [falling, full curve, poor fit]"
CCOC(=O)Cc1csc(NC(=O)CSc2ncnc3c2cnn3-c2ccc(OC)cc2)n1,AC50,[2],"6.31 µM [falling, partial curve]"
same,AC50,[3],"3.16 µM [falling, full curve]"
CC(=O)Nc1ccc(C)cc1-c1nc2ccccc2n(CC(=O)c2ccc(Cl)cc2)c1=O,AC50,[1],"6.31 µM [rising, partial curve, poor fit]"
COc1cccc2cc(-c3cn4c(n3)sc3cc(F)ccc34)c(=O)oc12,AC50,[1],"0.501 µM [falling, full curve]"
CC(=O)N(Cc1cccnc1)c1nc2ccc(F)cc2s1,AC50,[1],"1 µM [rising, full curve, poor fit]"
COc1cccc(-c2nc(Cc3ccc(OC)c(OC)c3)no2)c1,AC50,[1],"15.8 µM [falling, single point]"
COc1ccc(C(=O)NCC(c2cccs2)S(=O)(=O)c2ccc(F)c(C)c2)cc1 (stereo not given),AC50,[1],"39.8 µM [falling, single point]"
CCOc1ccc(-c2noc(CSc3nnc(-c4ccccc4)n3-c3ccccc3)n2)cc1,AC50,[1],"0.0316 µM [falling, full curve]"
CC[C@@H]1CN2CCc3cc(OC)c(OC)cc3[C@H]2C[C@@H]1C[C@H]1NCCc2cc(OC)c(OC)cc21,AC50,[1],"316 nM [falling, full curve] and 158 nM [falling, full curve]"
CCC(CC)C(=O)Nc1ccc(C(=O)OCc2cc(=O)n3nc(C4CC4)sc3n2)cc1,AC50,[1],"25.1 µM [falling, single point]"
O=C(NCc1ccccc1Cl)c1cccn1-c1nnc(N2CCCCC2)s1,AC50,[1],"20 µM [falling, partial curve, poor fit]"
NCCCc1ccc2oc3ccccc3c2c1,AC50,[1],"0.631 µM [falling, full curve]"
O=C(CSc1nnc(Cn2nnc(-c3ccccc3)n2)n1-c1ccccc1)Nc1ccc(F)cc1,AC50,[1],"5.01 µM [falling, partial curve]"
C#CCn1c(/C=C/c2ccc(Cl)cc2)nc2ccccc21,AC50,[1],"31.6 µM [falling, single point]"
Brc1c(OCCOCCn2cncn2)ccc2ccccc12,AC50,[1],"6.31 µM [rising, single point] [measured here: IkB-luc green channel]"
CCN(c1ccc(OC)cc1)S(=O)(=O)c1nnc(NC(=O)COc2ccc(F)cc2)s1,AC50,[1],"15.8 µM [falling, single point]"

# 3 entries drawn at random from the list so far:
structure (smiles),measurement,setting,value
O=C1CCCCCN1Sc1ccccc1,AC50,[2],"31.6 µM [rising, partial curve]"
COc1ccc(CNC(=O)Cn2nnc(-c3ccccc3F)n2)cc1,AC50,[1],"20 µM [falling, single point]"
CCOC(=O)Cc1csc(NC(=O)CSc2ncnc3c2cnn3-c2ccc(OC)cc2)n1,AC50,[3],"3.16 µM [falling, full curve]"

# Exported as tab-separated lines: part of the list above.
structure (smiles)	measurement	setting	value
N#CCSc1nc(Nc2ccc3c(c2)OCO3)c2ccccc2n1	AC50	[1]	6.31 µM [falling, partial curve]
CCCCN(C)CC(O)Cn1cc(/C=C/C(=O)c2ccc(OC)c(OC)c2)c2ccccc21 (stereo not given)	AC50	[1]	25.1 µM [falling, partial curve]
